Test results as given in PubChem BioAssay AID1347075 (National Center for Advancing Translational Sciences (NCATS), 2019).
Several values for one entry are separate records, joined by “and”; a condition that tells them apart may be missing. Equal entries are not always repeated. Hit rate of the full screen: of about 400,000 compounds, about 5,500 (1.4%) were called active. Inconclusive means that the source gave no clear call. Such entries were picked first, then a sample of the others. The call rests on the fitted dose curve; in most records, active means well fitted cell-killing curve with a large enough effect; inconclusive means small, poorly fitted or top-dose-only effect, or effect the other way; inactive means flat fitted curve, though single readings scatter. Potencies of inconclusive entries are doubtful fits and often do not repeat.

Test: qHTS assay for MDR1-selective chemotherapeutics: Primary screen using the parental adenocarcinoma cell KB-3-1; further: nearly all actives have a fitted effect of over 60% in size
Settings: KB-3-1 viability, CellTiter-Glo ATP luminescence, 72 h; activity change, negative = cytotoxic: at 46.1 µM (top of the series)
Summary of the method: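 Multi-concentration cytotoxicity screen in KB-3-1 cells grown in DMEM lacking phenol red with 10% FBS. After 72 h at 37 °C with compound, ATP-dependent luminescence was recorded.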
On the % scale 0 is the no-effect control and ±100 the full control effect; potency means the concentration at half of the fitted maximal effect.

Structure (SMILES)	Potency	activity change, negative = cytotoxic
Cc1cc(=S)c2ccccc2[nH]1	inconclusive: 8.2 µM [rising, partial curve]	
CCOc1ccc(C(C(=O)NCC2CCCO2)N(CCc2cccc(C)c2)C(=O)c2snc(C(N)=O)c2N)cc1 (centres undefined)	inconclusive: 29.1 µM [cytotoxic, single point]	
O=C(NCc1ccccc1Cl)c1ccc2c(c1)SC1=NS(=O)(=O)CCN12	inconclusive: 23.1 µM [rising, partial curve, poor fit]	
CCCNC(=S)Nc1ccc(Nc2ccccc2)cc1	inactive	
COc1ccc(NC(=O)C2CCCN(S(=O)(=O)c3ccc4c(c3)CCCN4C(C)=O)C2)cc1 (centres undefined)	inconclusive: 4.61 µM [cytotoxic, full curve, poor fit]	
COc1ccc(Cl)cc1NC(=O)CCn1cnc2ccccc2c1=O	inconclusive: 1.16 µM [rising, full curve, poor fit]	
CCc1cccc2c(C(=O)CN3C(=O)NC4(CCCCC4)C3=O)c[nH]c12	inconclusive: 20.6 µM [cytotoxic, partial curve, poor fit]	
CC1(C(=O)Nc2cccc(Oc3ccccc3)c2)Cc2c(-c3ccccc3)ccnc2O1 (centres undefined)	inconclusive: 29.1 µM [cytotoxic, single point]	
O=c1ccc(N=Nc2ccccc2)ccc1O	inconclusive: 29.1 µM [cytotoxic, single point]	
COCC(C)NC(=O)c1cc(-c2ccc(OC)c(OC)c2)on1 (centres undefined)	inconclusive: 29.1 µM [cytotoxic, single point]	
COc1ccccc1Cc1c(C(C)(C)C)nc2c3ccccc3ccn12	inconclusive: 20.6 µM [cytotoxic, single point]	
Cc1c(C)n(Cc2ccc(F)cc2)c2ccc(C(=O)Nc3ccc(Cl)cc3)cc12	inconclusive: 16.4 µM [cytotoxic, single point]	
O=C(Nc1ccc(CN2CCCCC2)cc1)Nc1ccc(Br)cc1Cl	active: 13 µM	
Cc1ccc(/C=C/C(O)=C2/C(=O)N(C)C3(C)CC2c2ccccc2O3)cc1 (centres undefined)	active: 14.6 µM	
COc1ccc(-c2ccc(=N)n(CCCC(=O)O)n2)cc1		inconclusive: -19.3%
CC(C)=CCNc1ncnc2c1c(C#N)cn2C1OC(CO)C(O)C1O (centres undefined)	inconclusive: 29.1 µM [cytotoxic, single point]	
N#CCCN(C(=O)COC(=O)CCc1nc2ccccc2c(=O)[nH]1)c1ccccc1F	inconclusive: 29.1 µM [cytotoxic, single point]	
COc1ccccc1CNC(=O)c1cc(S(=O)(=O)N2CCOCC2)cn1C	inactive	
CCOC(=O)c1c(C)[nH]c(C(=O)COC(=O)CSCC(=O)N(CC)CC)c1C	inconclusive: 2.31 µM [cytotoxic, partial curve]	
CN(C)c1ccc(/C=C/c2cccc3cc4ccccc4nc23)cc1	active: 4.11 µM	
COc1ccc(OC)c(/C=C/c2cc3ccccc3cn2)c1	active: 5.17 µM	
Cc1[nH]n(-c2ccccc2)c(=O)c1/C=N/N1C(=O)c2ccc3c4c(ccc(c24)C1=O)CC3		inconclusive: -29.5%
O=C(/C=C/c1nc2ccccc2s1)N1CCCCCC1		inconclusive: 0.564%

Sorted by molar mass (low to high): three of the compounds above.
Structure (SMILES)	Potency	activity change, negative = cytotoxic
COCC(C)NC(=O)c1cc(-c2ccc(OC)c(OC)c2)on1 (centres undefined)	inconclusive: 29.1 µM [cytotoxic, single point]	
CCOC(=O)c1c(C)[nH]c(C(=O)COC(=O)CSCC(=O)N(CC)CC)c1C	inconclusive: 2.31 µM [cytotoxic, partial curve]	
O=C(Nc1ccc(CN2CCCCC2)cc1)Nc1ccc(Br)cc1Cl	active: 13 µM	

Laid out differently: results already given
O=C(NCc1ccccc1Cl)c1ccc2c(c1)SC1=NS(=O)(=O)CCN12
  Potency: inconclusive: 23.1 µM [rising, partial curve, poor fit]
CCCNC(=S)Nc1ccc(Nc2ccccc2)cc1
  Potency: inactive

(further entries)

Structure (SMILES)	Potency	activity change, negative = cytotoxic
CC(=O)Nc1ccc2c(c1)[nH]c(=O)c1ccccc12	inconclusive: 7.31 µM [rising, partial curve, poor fit]	
Cc1ccc(NC(=O)c2cc(S(=O)(=O)N3CCOCC3)c(Br)s2)cc1	inconclusive: 29.1 µM [cytotoxic, single point]	
COc1ccc(-c2cc(N)n(S(=O)(=O)c3c(F)c(F)c(F)c(F)c3F)n2)cc1OC	active: 10.3 µM	
CC(=O)Nc1ccc(C(C#N)c2ccccc2)cc1 (centres undefined)	inactive	
COc1cccc2cc(C(=O)OC(C)C(=O)c3ccc(C)cc3)c(=O)oc12 (centres undefined)	inactive	
O=C1c2ccccc2NC(c2ccc(-c3cccc(F)c3)o2)N1O (centres undefined)	inconclusive: 20.6 µM [cytotoxic, single point]	
O=C(O)C1CSC(c2coc3ccccc3c2=O)N1 (centres undefined)	inactive	
CSCc1nnc(NC(=O)c2ccc(S(=O)(=O)N3CCCCC3C)cc2)o1 (centres undefined)	inconclusive: 20.6 µM [cytotoxic, single point]	
COCCOC(=O)c1c(C)oc2ccc(OC(=O)c3c(OC)cccc3OC)cc12	inactive	
O=C(OC(C(=O)Nc1ccc(Cl)cc1C(F)(F)F)c1ccccc1)c1c(Cl)cccc1Cl (centres undefined)	inconclusive: 20.6 µM [cytotoxic, single point]	
CCCC(=O)N1CCOCC1c1cc(C(=O)Nc2ccccc2)no1 (centres undefined)	inactive	
CC(=O)c1ccc(NC(=O)CCCc2nc(-c3cccc(C)c3)no2)cc1	inactive	
COc1ccc(O)c(/C=C2/SC(=S)N(Cc3ccccc3)C2=O)c1	inconclusive: 29.1 µM [cytotoxic, single point]	
Cc1cccc(NC(=O)NNC(=O)c2cc3occc3[nH]2)c1C	inactive	
Cc1ccc2nc(-c3ccc(O)c(O)c3)cn2c1	inconclusive: 29.1 µM [cytotoxic, single point]	
COC(=O)Cc1c(C)c2ccc3c(c2oc1=O)CN(Cc1ccccc1OC)CO3	inactive	
O=C(c1cc2ccccc2o1)N(C1CC1)C1(C(=O)Nc2ccccc2)CCCC1	inconclusive: 23.1 µM [cytotoxic, single point]	
Cc1oc(-c2ccc(Cl)cc2)nc1CSCC(=O)NCc1ccccc1Cl	inconclusive: 29.1 µM [cytotoxic, single point]	
COc1cccc(-c2nc(CSCC(=O)N3CCc4ccccc43)c(C)o2)c1	inconclusive: 25.9 µM [cytotoxic, single point]	
O=C1c2ccccc2C(=O)N1Cc1cnc(N2CCN(c3ccccc3)CC2)s1	inconclusive: 20.6 µM [cytotoxic, single point]	
Cc1cc(C)cc(Cn2c3ccc(NC(=S)NCc4ccccc4F)cc3c(=O)n2C)c1	inactive	
CC(C)n1cc(CN2CCC(C(=O)Nc3cccc(-c4cccc(Cl)c4)c3)CC2)cn1	inconclusive: 29.1 µM [cytotoxic, single point]	
C[C@H]1CN([C@@H](C)CO)C(=O)Cc2cc(NC(=O)CCC(F)(F)F)ccc2O[C@H]1CN(C)C(=O)Nc1ccc(F)cc1	inactive	

Structure (SMILES)	Potency	activity change, negative = cytotoxic
Clc1ccc(-c2nc3ccc(Cl)cn3c2Cc2cccc(Cl)c2)cc1	inactive	
CCOc1ccc(-c2cncc3nccn23)cc1	inactive	
C=CCc1c(C)c(C#N)c2nc3ccccc3n2c1N1CCCCC1		inconclusive: 1.47%
Oc1ccc(/C=C/c2ccnc3ccccc23)cc1		inconclusive: 0%
CCN(C(=O)COc1cc(=O)n(CC)c2ccccc12)c1cccc(Cl)c1	inconclusive: 20.6 µM [cytotoxic, single point]	
CC(C)(C)OC(=O)N1CCc2onc(-c3ccccc3F)c2C1=O	inconclusive: 25.9 µM [cytotoxic, partial curve, poor fit]	
COc1ccc(C(=O)Nc2ncc3c(n2)CC(C)CC3=O)cc1 (centres undefined)	inactive	
CCCOC(=O)C1=C(C)NC2=C(C(=O)CCC2)C1c1cccc(OC)c1OC (centres undefined)	inactive	
C=CCCN(C(CC(C)C)C(=O)OC)S(=O)(=O)c1cc(Br)ccc1Br (centres undefined)	inconclusive: 29.1 µM [cytotoxic, single point]	
COC(=O)C1=C(C)N(Cc2ccccc2)C(=NCc2ccc(OC)cc2)N[C@H]1c1cccc(F)c1	inconclusive: 16.4 µM [cytotoxic, single point]	
COc1cc(NC(=O)c2ccc([N+](=O)[O-])o2)ccc1NC(=O)c1ccco1	inconclusive: 0.731 µM [cytotoxic, full curve, poor fit]	
CCOc1ccc(CCNC(=O)c2cc3ccccn3n2)cc1OCC	inconclusive: 14.6 µM [cytotoxic, partial curve, poor fit]	
CN1CCN(C(=O)CSc2nc(-c3ccco3)cc(C(F)(F)F)n2)CC1	inconclusive: 14.6 µM [rising, partial curve, poor fit]	
COc1ccc2ncc(S(=O)(=O)c3ccccc3)c(N3CCC4(CC3)OCCO4)c2c1	inconclusive: 23.1 µM [cytotoxic, partial curve, poor fit]	
CCN(c1ccccc1)S(=O)(=O)c1ccc(OC)c(NC(=O)CNCCc2ccccc2)c1	inconclusive: 29.1 µM [cytotoxic, single point]	
COc1ccc(Cl)cc1Cn1c(C)c(C(=O)NCc2ccccc2C(F)(F)F)sc1=O	inconclusive: 16.4 µM [cytotoxic, single point]	
C#CC(C)(C)NC(=O)c1ccc(-c2ccccc2F)cc1	inactive	
CC(C)(C)n1nc(-c2ccc(Cl)cc2)c2c(N)ncnc21	inconclusive: 16.4 µM [cytotoxic, single point] and inconclusive: 29.1 µM [cytotoxic, single point]	
COC(=O)[C@@H](Cc1ccccc1)N(Cc1ccccc1)S(=O)(=O)N(Cc1ccccc1)[C@H](Cc1ccccc1)C(=O)OC	inconclusive: 16.4 µM [cytotoxic, single point] and inconclusive: 8.2 µM [cytotoxic, partial curve]	
Cc1sc2ncnc(N3CCC(C(=O)Nc4cc(Cl)ccc4Cl)CC3)c2c1C	inactive	
O=C(CSc1n[nH]c(=O)n1CCc1ccccc1)NC1CCCC1	inconclusive: 0.0291 µM [rising, full curve]	
Oc1ccc(/C=N/Nc2nccnc2Cl)cc1	active: 16.4 µM	
COc1cc(-c2nc(S(=O)(=O)c3ccccc3)c(N3CCOCC3)o2)cc(OC)c1OC	inactive	
